# From patent US9447134B2 (priority 2012, dated 2016)
# Some of these results come from one statement about several compounds together. At least one structure is not confirmed: it was looked up by name or label, or the drawing left a doubt.
# Tested on: C. parvum
# Conditions: IL-12 knockout mice, 1000 oocysts, 250 mg/kg daily oral gavage, seven days
smiles,measurement,value
CC(=NOCCN)c1cccc(C(C)(C)NC(=O)Nc2ccc(Cl)c([N+](=O)[O-])c2)c1 [Compound P131],reduction of fecal oocyst numbers,55-72%
